Experimental data as given in the supplement of paper PMC11732987, “Enantioselective OTUD7B fragment discovery through chemoproteomics screening and high-throughput optimisation” (Communications Chemistry, 2025).
The list shows a part of the results. The data scatter; read single values as rough.

Target: T1, AMPD2 C310 (UniProt Q01433)
T1 sequence (whole entry): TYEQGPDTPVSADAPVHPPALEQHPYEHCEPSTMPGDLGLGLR
Assay: log2 mean competition ratio of IA-DTB cysteine labelling (DMSO/compound) (log2 ratio); higher = stronger cysteine engagement by compound
Details: treatment time: 4 h, cell line lysate: HEK293T
Method: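 IA-DTB competitive cysteine chemoproteomics in HEK293T RIPA lysate. Lysates were treated with compound 29 or 30 at 50 or 200 µM for 4 h, then IA-DTB (500 µM, 1 h), trypsin-digested, NeutrAvidin-enriched and analysed by diaPASEF. Competition ratio = intensity DMSO / intensity compound (n=4 treated, n=64 DMSO); binding: mean log2 CR ≥ 1 and p ≤ 0.05 plus QC filters. Target is the cysteine site.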

SMILES | log2 mean competition ratio (50 µM) | log2 mean competition ratio (200 µM)
O=C(CCl)N[C@H]1CCCc2ccccc21 | 0.679 | -0.514
O=C(CCl)N[C@@H]1CCCc2ccccc21 | 0.0133 | 0.117
